Data as given in PubChem BioAssay AID248 (DTP/NCI, 2004).
The list shows only some results of the screen, not a fair sample: it gathers tests that were run many times, whatever their T/C, doses with no T/C, and many T/C values between a quarter and a half above the control. Other doses and runs of a compound stand elsewhere. T/C: endpoint of the treated group in % of that of the vehicle group. Some doses have a count of surviving animals in place of a T/C: the source files T/C as zero there, which appears to mark a toxic dose or a test without result, not a measured value. Some doses without a T/C left all or most animals alive at the check, yet need not have been tolerated: the source hardly ever lists a survival T/C far under the control, and the zero likely stands for such cases as well. Survivors were counted at the toxicity check, usually on the fifth day, unless a day is given; later deaths do not show. Schedules are NCI's codes, taken here to give the interval after Q, in days (D) or hours (H), and the number of doses after X. Some schedules carry Z or #; the key to these is not given. Where survival is the endpoint, the PubChem record calls one and a half times the control and up active, and a quarter to a half above the control has no call in these data; cut-offs in other NCI protocols can differ.

System: L1210 leukemia ip in BDF1 mice, survival T/C
Test: NCI In Vivo Anticancer Drug Screen. Data for tumor model L1210 Leukemia (intraperitoneal) in B6D2F1 (BDF1) mice
Settings: T/C endpoint: mean survival time, higher T/C = longer survival
[1] = dose: 200.0 mg/kg/injection, schedule: Q01DX009 (ip), vehicle: Klucel (hydroxypropylcellulose) (HPC)
[2] = dose: 100.0 mg/kg/injection, schedule: Q04DX003 (ip), vehicle: saline
[3] = dose: 200.0 mg/kg/injection, schedule: Q04DX003 (ip), vehicle: saline
[4] = dose: 400.0 mg/kg/injection, schedule: Q01DX009 (ip), vehicle: saline with Tween-80
[5] = dose: 400.0 mg/kg/injection, schedule: Q04DX003 (ip), vehicle: Klucel (hydroxypropylcellulose) (HPC)
[6] = dose: 200.0 mg/kg/injection, schedule: Q01DX009 (ip), vehicle: saline
[7] = dose: 400.0 mg/kg/injection, schedule: Q01DX009 (ip), vehicle: saline
[8] = dose: 300.0 mg/kg/injection, schedule: Q01DX001 (ip), vehicle: carboxymethylcellulose (CMC)

In the case of `NNC(=O)c1ccc(Br)cc1`, the T/C (dose: 100.0 mg/kg/injection, schedule: Q01DX009 (ip), vehicle: Klucel (hydroxypropylcellulose) (HPC)) is reported as 136 % of control, the survivor count [1] is reported as 5 of 6 and the survivor count (dose: 400.0 mg/kg/injection, schedule: Q01DX009 (ip), vehicle: Klucel (hydroxypropylcellulose) (HPC)) is reported as 0 of 6.

For `Fc1ccc(NC(=S)S)cc1`, the survivor count [2] was 3 of 6, the survivor count [3] was 0 of 6 and the survivor count (dose: 400.0 mg/kg/injection, schedule: Q04DX003 (ip), vehicle: saline) was 0 of 6.

For `CC1CCCCC1O` (stereo not drawn), the survivor count [4] was 2 of 6.

`CCOC(=O)c1cc(=O)c2c(ccc3ccccc32)[nH]1` was tested, and the survivor count [5] was 2 of 6.

In the case of `CC(=O)N1CCc2cc(N)ccc21`, the survivor count (dose: 100.0 mg/kg/injection, schedule: Q01DX009 (ip), vehicle: saline with Tween-80) is reported as 2 of 6 and the survivor count [4] is reported as 2 of 6.

With `CCN(CC)CCOC(=S)Nc1ccccc1` the survivor count [6] was 0 of 6 and the survivor count [7] was 0 of 6.

In the case of `O=C1C(N2CCOCC2)=Cc2cccc3cccc1c23`, the survivor count [4] is reported as 2 of 6 and the survivor count (dose: 400.0 mg/kg/injection, schedule: Q04DX003 (ip), vehicle: saline with Tween-80) is reported as 0 of 6.

With `CCCCCC(/C=N/N=C(N)N)=N\N=C(N)N` the survivor count (dose: 120.0 mg/kg/injection, schedule: Q01DX Z (ip), vehicle: carboxymethylcellulose (CMC)) was 0 of 6.

`Nc1nc(Nc2ccc(Cl)c(Cl)c2)cc(=O)[nH]1` was tested, and the survivor count (dose: 100.0 mg/kg/injection, schedule: Q01DX Z (ip), vehicle: methylcellulose (MC)) was 5 of 6.

In the case of `CC#CC#Cc1cccc(=O)o1`, the survivor count (dose: 150.0 mg/kg/injection, schedule: Q04DX003 (ip), vehicle: Klucel (hydroxypropylcellulose) (HPC)) is reported as 2 of 6, the survivor count (dose: 225.0 mg/kg/injection, schedule: Q04DX003 (ip), vehicle: Klucel (hydroxypropylcellulose) (HPC)) is reported as 2 of 6 and the survivor count (dose: 335.0 mg/kg/injection, schedule: Q04DX003 (ip), vehicle: Klucel (hydroxypropylcellulose) (HPC)) is reported as 0 of 6.

For `O=C(Nc1cccc(C(F)(F)F)c1)Nc1cccc2c1C(=O)c1ccccc1C2=O`, the survivor count [4] was 6 of 6.

In the case of `CC1CCCCN1P(=[Se])(c1ccccc1)N1CCCCC1C` (stereo not drawn), the survivor count (dose: 200.0 mg/kg/injection, schedule: Q04DX003 (ip), vehicle: Klucel (hydroxypropylcellulose) (HPC)) is reported as 2 of 6 and the survivor count [5] is reported as 0 of 6.

With `COc1cc(N)c(CC2c3cc(OC)c(OC)cc3CCN2C)cc1OC` (stereo not drawn) the survivor count [8] was 2 of 6.

For `OCC1OC(Nc2ncnc3c2ncn3C2OC(CO)C(O)C2O)C(O)C1O` (stereo not drawn), the survivor count (dose: 50.0 mg/kg/injection, schedule: Q01DX009 (ip), vehicle: saline) was 0 of 6, the survivor count (dose: 100.0 mg/kg/injection, schedule: Q01DX005 (ip), vehicle: saline) was 0 of 6 and the survivor count (dose: 200.0 mg/kg/injection, schedule: Q01DX005 (ip), vehicle: saline) was 0 of 6.

In the case of `CCN(CC)CCCNC(c1ccccc1)C(Cl)(Cl)Cl` (stereo not drawn), the survivor count (dose: 200.0 mg/kg/injection, schedule: Q01DX001 (ip), vehicle: saline) is reported as 1 of 4 and the survivor count (dose: 400.0 mg/kg/injection, schedule: Q01DX001 (ip), vehicle: saline) is reported as 0 of 4.

For `O=C1c2ccccc2C(=O)c2c(O)c(N3CCOCC3)cc(O)c21`, the survivor count (dose: 25.0 mg/kg/injection, schedule: Q04DX003 (ip), vehicle: saline) was 6 of 6, the survivor count (dose: 50.0 mg/kg/injection, schedule: Q04DX003 (ip), vehicle: saline) was 6 of 6 and the survivor count [2] was 6 of 6. For the same compound, the survivor count [3] was 6 of 6.

`COc1ccc(Oc2cc(CC3c4cc(OC)c(OC)cc4CCN3C)c([N+](=O)[O-])cc2OC)cc1OC` (stereo not drawn) was tested, and the survivor count [6] was 0 of 6 and the survivor count [7] was 0 of 6.

For `CCC(C)C1NC(=O)C(C(C)=O)=C1O.[Cu+2]` (stereo not drawn), the survivor count (dose: 75.0 mg/kg/injection, schedule: Q01DX001 (ip), vehicle: carboxymethylcellulose (CMC)) was 3 of 6 and the survivor count [8] was 1 of 6.

`CC[n+]1cccc(NC(=O)c2ccc(NC(=O)c3ccc(C(=O)Nc4ccc5c(ccc[n+]5CC)c4)cc3)cc2)c1` was tested, and the survivor count (dose: 1.0 mg/kg/injection, schedule: Q01DX015 (oral), vehicle: alkali diluted with saline) was 1 of 6, the T/C (dose: 1.1 mg/kg/injection, schedule: Q01DX Z (ip), vehicle: carboxymethylcellulose (CMC)) was 141 % of control and the T/C (dose: 1.5 mg/kg/injection, schedule: Q01DX015 (ip), vehicle: alkali diluted with saline) was 144 % of control. The survivor count (dose: 3.0 mg/kg/injection, schedule: Q01DX015 (oral), vehicle: alkali diluted with saline) was 0 of 6, the survivor count (dose: 6.0 mg/kg/injection, schedule: Q01DX015 (oral), vehicle: alkali diluted with saline) was 0 of 6 and the T/C (dose: 6.7 mg/kg/injection, schedule: Q01DX Z (ip), vehicle: carboxymethylcellulose (CMC)) was 125 % of control. For the same compound, the survivor count (dose: 12.0 mg/kg/injection, schedule: Q01DX015 (ip), vehicle: alkali diluted with saline) was 1 of 6, the survivor count (dose: 12.0 mg/kg/injection, schedule: Q01DX015 (oral), vehicle: alkali diluted with saline) was 0 of 6 and the survivor count (dose: 25.0 mg/kg/injection, schedule: Q01DX015 (oral), vehicle: alkali diluted with saline) was 0 of 6. For the same compound, the survivor count (dose: 35.0 mg/kg/injection, schedule: Q01DX015 (ip), vehicle: alkali diluted with saline) was 4 of 6, the survivor count (dose: 37.0 mg/kg/injection, schedule: Q01DX001 (ip), vehicle: alkali diluted with saline) was 0 of 4 and the survivor count (dose: 50.0 mg/kg/injection, schedule: Q01DX001 (ip), vehicle: alkali diluted with saline) was 0 of 4. For the same compound, the survivor count (dose: 50.0 mg/kg/injection, schedule: Q01DX015 (ip), vehicle: alkali diluted with saline) was 0 of 6, the survivor count (dose: 50.0 mg/kg/injection, schedule: Q01DX015 (oral), vehicle: alkali diluted with saline) was 0 of 6 and the survivor count (dose: 100.0 mg/kg/injection, schedule: Q01DX001 (ip), vehicle: alkali diluted with saline) was 0 of 4. The survivor count (dose: 200.0 mg/kg/injection, schedule: Q01DX001 (ip), vehicle: alkali diluted with saline) was 0 of 4 and the survivor count (dose: 400.0 mg/kg/injection, schedule: Q01DX001 (ip), vehicle: alkali diluted with saline) was 0 of 4.

In the case of `COc1cccc(O)c1/C=C/[N+](=O)[O-]`, the survivor count [1] is reported as 5 of 6.

With `NC(=O)c1c(Br)c(Br)c(Br)c(Br)c1C(=O)O` (tested in a mixture with another compound) the survivor count (dose: 200.0 mg/kg/injection, schedule: Q04DX003 (ip), vehicle: saline with Tween-80) was 6 of 6.

`O=C1c2ccccc2-c2ccc(N3C(=O)c4ccccc4C3=O)cc21` was tested, and the survivor count (dose: 100.0 mg/kg/injection, schedule: Q01DX001 (ip), vehicle: saline with Tween-80) was 6 of 6, the survivor count (dose: 200.0 mg/kg/injection, schedule: Q01DX001 (ip), vehicle: saline with Tween-80) was 6 of 6 and the survivor count (dose: 400.0 mg/kg/injection, schedule: Q01DX001 (ip), vehicle: saline with Tween-80) was 6 of 6.
